# Assay results: patent publication US8492147B2, “Method of inducing the differentiation of embryonic stem cells into nerve by serum-free suspension culture” (Riken, priority 2004, dated 2013)
# For at least one compound, name, drawing or mass did not settle the structure.
# Tested on: Mouse ES cells (EB5 cells)
# Assay: SFEB culture with retinoic acid, Bf1+ cells and RT-PCR of rostral/caudal markers
# Format: cell-based
# Conditions: RA 0.2 μM, SFEB-induced neural cells
# Method: Specifically, As ES cells, those cultured for maintenance by conventional culture method without feeder cells supplemented with 1% fetal calf serum, 10% KSR (Knockout Serum Replacement), and LIF were used for SFEB method (see, Neuron, Vol. 28: 31-40 (2000)). Next, after ES cell colonies were subjected to trypsin/EDTA treatment to make single cells, 10 ml of the cells (6×10^4 cells/ml) were seeded on cell non-adhesive culture plastic plate (diameter: 10 cm), and incubated at 37° C., 5% CO2 for five days. As medium, differentiation medium composed of 500 ml of GMEM, 5 ml of 100×NEAA, 5 ml of 100×pyruvate, and 0.5 ml of 1×10^−1 M 2-mercaptoethanol, and 5% KSR (Knockout Serum Replacement). […]
# Mouse ES cells (EB5 cells) were subjected to serum-free floating culture by the SFEB method in the same manner as Example 1 for 5 days, after which they were dispersed by trypsin/EDTA treatment, seeded to a cell culture slide coated with poly-D lysine/laminin, and cultured in a differentiation medium (as described above) for 2 days, and then in a GMEM+N2 medium (composition: GMEM+1×N-2 Supplement (manufactured by Gibco, a supply of ×100 concentration was used after dilution), 0.1 mM non-essential amino acid, 1 mM sodium pyruvate, 0.1 mM 2-mercaptoethanol) for 3 days. The finally obtained differentiated cells were analyzed by the fluorescent antibody method using anti-Bf1 antibody. […]
structure (smiles),measurement,value
"CC1=C(/C=C/C(C)=C/C=C/C(C)=C/C(=O)O)C(C)(C)CCC1 [RA, retinoic acid]",caudal marker Hoxb4 (RT-PCR),induced
same,rostral markers Bf1 and Otx2 (RT-PCR),completely suppressed
